{"source": "PubChem BioAssay AID1053208 (Peter MacCallum Cancer Centre, 2014)", "purpose": "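Synthetic lethal interactions between gene loss and doxorubicin in osteosarcoma cells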 (primary screen)", "system": "mouse osteosarcoma cells, early-passage culture from an engineered mouse model of fibroblastic bone tumour", "knock-down reagent": "siRNA pool against mouse genes, 40 nM", "timing": "about 120 h (48 h before drug, then 72 h with drug)", "conditions": "doxorubicin 100 nM for 72 h, roughly 30-40% inhibitory dose", "measured": "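Viability read as ATP luminescence after 72 h of 100 nM doxorubicin or none, duplicate wells averaged, scaled to non-targeting siRNA, then expressed as robust z-scores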", "reading the numbers": "viability z-score with doxorubicin: higher = more viable cells under doxorubicin; viability z-score without drug: higher = more viable cells with knock-down alone", "hit rule": "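a pool counts as active when its viability z-score with doxorubicin is -2 or below and its z-score without drug lies between -2 and 2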", "note": "In all, the deposit lists about 17,000 reagents; shown is an unselected part. Of all reagents, 788 (4.7%) got an active call. 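Calls rest on z-score classes alone; an extra cut-off of viability at most 70% of control was not applied to them.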 Unmarked entries are inactive. Not all columns of the deposit are shown."}
{"gene":"Dusp7 (dual specificity phosphatase 7)","combined z-score class":"low cell count without drug only","viability z-score with doxorubicin":0,"viability z-score without drug":-2.19}
{"gene":"Wnt5a (WNT family member 5A)","combined z-score class":"no change with or without drug","viability z-score with doxorubicin":-0.9,"viability z-score without drug":-1.35}
{"gene":"Rasgrp3 (RAS, guanyl releasing protein 3)","combined z-score class":"no change with or without drug","viability z-score with doxorubicin":-0.79,"viability z-score without drug":-0.51}
{"gene":"Psmb7 (proteasome (prosome, macropain) subunit, beta type 7)","combined z-score class":"low cell count with and without drug","viability z-score with doxorubicin":-7.42,"viability z-score without drug":-5.9}
{"gene":"Sdccag8 (serologically defined colon cancer antigen 8)","combined z-score class":"high cell count without drug only","viability z-score with doxorubicin":1.69,"viability z-score without drug":2.19}
{"gene":"Pask (PAS domain containing serine/threonine kinase)","combined z-score class":"no change with or without drug","viability z-score with doxorubicin":1.8,"viability z-score without drug":-0.34}
{"gene":"Akt1s1 (AKT1 substrate 1)","combined z-score class":"no change with or without drug","viability z-score with doxorubicin":0.45,"viability z-score without drug":-0.67}
{"gene":"Bfar (bifunctional apoptosis regulator)","combined z-score class":"no change with or without drug","viability z-score with doxorubicin":1.8,"viability z-score without drug":0.51}
{"gene":"Obscn","combined z-score class":"low cell count without drug only","viability z-score with doxorubicin":0.45,"viability z-score without drug":-2.19}
{"gene":"Rrm2b (ribonucleotide reductase M2 B (TP53 inducible))","combined z-score class":"no change with or without drug","viability z-score with doxorubicin":-0.45,"viability z-score without drug":0.17}
{"gene":"Or12j3 (olfactory receptor family 12 subfamily J member 3)","combined z-score class":"no change with or without drug","viability z-score with doxorubicin":-0.45,"viability z-score without drug":0.34}
{"gene":"Cyp2e1 (cytochrome P450, family 2, subfamily e, polypeptide 1)","combined z-score class":"no change with or without drug","viability z-score with doxorubicin":0.56,"viability z-score without drug":0.84}
{"gene":"Fetub (fetuin beta)","combined z-score class":"no change with or without drug","viability z-score with doxorubicin":-0.56,"viability z-score without drug":-0.17}
{"gene":"Adra2a (adrenergic receptor, alpha 2a)","combined z-score class":"no change with or without drug","viability z-score with doxorubicin":0.45,"viability z-score without drug":0}
{"gene":"Slc40a1","combined z-score class":"no change with or without drug","viability z-score with doxorubicin":0.11,"viability z-score without drug":1.01}
{"gene":"Pcdha6 (protocadherin alpha 6)","combined z-score class":"no change with or without drug","viability z-score with doxorubicin":-1.8,"viability z-score without drug":-1.18}
{"gene":"Atp6v1e2 (ATPase, H+ transporting, lysosomal V1 subunit E2)","combined z-score class":"no change with or without drug","viability z-score with doxorubicin":0.67,"viability z-score without drug":0.17}
{"gene":"Stac2 (SH3 and cysteine rich domain 2)","combined z-score class":"no change with or without drug","viability z-score with doxorubicin":1.46,"viability z-score without drug":0.17}
{"gene":"Wdr19 (WD repeat domain 19)","combined z-score class":"high cell count without drug only","viability z-score with doxorubicin":0.67,"viability z-score without drug":2.02}

2 consecutive entries from above, quoted:
{"gene":"Akt1s1 (AKT1 substrate 1)","combined z-score class":"no change with or without drug","viability z-score with doxorubicin":0.45,"viability z-score without drug":-0.67}
{"gene":"Bfar (bifunctional apoptosis regulator)","combined z-score class":"no change with or without drug","viability z-score with doxorubicin":1.8,"viability z-score without drug":0.51}
